Experimental data: PubChem BioAssay AID2551 (National Center for Advancing Translational Sciences (NCATS), 2010)
Screen size: about 310,000 compounds; about 17,000 (5.5%) were called active. Inconclusive means that the source gave no clear call. Such entries were picked first, then a sample of the others. Calls follow the shape of the dose curve; as a rule, active = well fitted inhibition curve with a large enough effect; inconclusive = small, poorly fitted or top-dose-only effect, or effect the other way; inactive = no such curve, though single readings can be large or run the other way. Potencies beside an inconclusive call are fits to weak or partial responses and may not hold up.

By UniProt entry, the sequences of proteins in these tests, tags left out. Where a name states a change or a piece, a line headed by the entry shows the natural chain unless it says otherwise.
UniProt P51450: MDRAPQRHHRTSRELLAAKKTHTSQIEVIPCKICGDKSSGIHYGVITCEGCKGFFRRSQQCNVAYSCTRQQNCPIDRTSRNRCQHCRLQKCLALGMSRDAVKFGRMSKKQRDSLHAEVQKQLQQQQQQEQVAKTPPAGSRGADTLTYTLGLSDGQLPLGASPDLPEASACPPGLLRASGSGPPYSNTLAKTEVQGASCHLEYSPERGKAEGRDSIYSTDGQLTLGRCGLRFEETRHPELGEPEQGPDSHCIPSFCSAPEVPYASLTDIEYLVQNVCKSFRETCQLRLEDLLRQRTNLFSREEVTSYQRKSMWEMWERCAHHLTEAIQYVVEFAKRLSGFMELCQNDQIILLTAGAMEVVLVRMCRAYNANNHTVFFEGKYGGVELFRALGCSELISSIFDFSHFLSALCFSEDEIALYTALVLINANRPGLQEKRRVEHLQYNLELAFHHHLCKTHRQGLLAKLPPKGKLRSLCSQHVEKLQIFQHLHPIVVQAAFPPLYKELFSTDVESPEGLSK

biological target: Nuclear receptor ROR-gamma (Mus musculus) (UniProt P51450); test: qHTS for inhibitors of ROR gamma transcriptional activity; conditions: Drosophila S2 Gal4-RORgamma UAS-luciferase reporter, 20 h; activity change, negative = inhibition: at 53.6 µM (top of the series); also: nearly all actives have a fitted effect of over 60% in size
How it was run: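 A Gal4/UAS one-hybrid system in insect cells: metallothionein-promoter Gal4–ROR gamma fusion plus Photinus luciferase reporter. Copper sulfate 700 uM final, 20 hr ambient incubation, luminescent detection after 10 min with reagent.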
% is scaled to controls: 0 for no effect and ±100 for the full control effect; potency is read from the fitted curve at half-maximal effect.

Potency, active:
CCSc1nc2ccccc2n1C(=O)/C=C/c1ccc(OC)c(OC)c1 7.08 µM
O=C(CN1C(=O)S/C(=C\c2cccc(Cl)c2)C1=O)NC1C=CS(=O)(=O)C1 (stereo unspecified) 7.94 µM
CC(=O)NC(=S)Nc1sc2c(c1C#N)CCCCC2 11.2 µM
O=C(CCOc1ccccc1)Nc1nnc(-c2ccc3c(c2)OCCO3)o1 8.91 µM
C=CCNC(=S)NN(c1ccccc1)c1ccccc1 2 µM
CCc1ccc(OCC(=O)NNC(=S)NC(=O)C2CCCCC2)c(Br)c1 10 µM
CC(C)(C)NC(=S)Nc1ccc(Br)cc1 2 µM
Cc1ccc(NC(=S)NC(=O)c2ccc(-c3ccccc3)cc2)c(C)c1 4.47 µM
CC(=O)Nc1ccc(S(=O)(=O)NNC2=NS(=O)(=O)c3ccccc32)cc1 10 µM
CC(C)Cn1c(SCC(=O)Nc2cccc(S(N)(=O)=O)c2)nc2ccccc2c1=O 10 µM
FC(F)Oc1ccc(NC(=S)N2CCc3ccccc32)cc1 8.91 µM
COc1ccccc1-c1nnc(NC(=O)CCS(=O)(=O)c2ccccc2)o1 10 µM

Quoted at random: 2 records from the list.
Potency, active:
FC(F)Oc1ccc(NC(=S)N2CCc3ccccc32)cc1 8.91 µM
COc1ccccc1-c1nnc(NC(=O)CCS(=O)(=O)c2ccccc2)o1 10 µM

Next part:

Potency, inactive:
O=C(CSc1nc2ccccc2o1)Nc1cc(C(F)(F)F)ccc1N1CCOCC1
CC1(C)CNC(=O)CC(C)(C)N1
O=C1NC2(CCCCCC2)C(=O)N1Cc1ccc(F)cc1Cl
Cc1c(NC(=S)NC(=O)Cc2ccccc2)cccc1C(=O)O
Cc1ccc(N2CN(Cc3ccco3)CNC2=S)c(C)c1
FC(F)(F)COc1nc(OCC(F)(F)F)nc(N2CCN(c3ccccc3)CC2)n1
O=C(Nc1cccnc1)c1cc(-c2ccc(Cl)cc2)on1
Cc1ccc(NCc2nnc(SCC(=O)O)n2Cc2ccccc2)cc1Cl
COCCNC(=O)c1cccc(OC2CCN(Cc3ccccc3C)CC2)c1
CCCCCNc1nc2ccccc2nc1NS(=O)(=O)c1cccs1
CN(CC(=O)Nc1cccnc1)S(=O)(=O)c1ccccc1
CCCn1c(=S)[nH]c2ccc(C(F)(F)F)cc21
COc1ccc(CCNC(=O)c2cn(C)c3ccc(S(=O)(=O)N4CCOCC4)cc3c2=O)cc1OC
O=C(c1cccc(F)c1)N1CCC[C@@]2(CCN(Cc3ccncc3)C2)C1

Potency, inconclusive:
O=C(NCc1cccnc1)c1ccc(COc2ccc(Cl)cc2)cc1 31.6 µM [inhibitor, single point]
COC(=O)c1cn(CCOc2ccccc2OC)c2ccccc12 20 µM [activator, single point]
CCn1c(SCC(=O)c2ccc(Cl)s2)nnc1-c1cccs1 10 µM [activator, single point]
COc1ccc2c(c1)c(=O)cc(-c1ccccc1)n2C 12.6 µM [activator, partial curve]
CCOC(=O)C1CCN(S(=O)(=O)c2cccc(-c3cn4ccccc4n3)c2)CC1 22.4 µM [activator, single point]
COC(=O)c1cccc(NC(=O)c2cc3ccccc3o2)c1 11.2 µM [inhibitor, single point]
Cc1cc(C)n(-c2cc(N3CCN(C(=O)c4cccc(Br)c4)CC3)ccc2[N+](=O)[O-])n1 22.4 µM [activator, single point]
O=C(O)CCc1ccc(-c2ccc(Cl)cc2)o1 35.5 µM [inhibitor, single point]
CCN(CC)S(=O)(=O)c1cccc(-c2nnc(SCCCC(=O)c3ccc(F)cc3)o2)c1 0.158 µM [activator, full curve, poor fit]
Cc1ccc(Cc2cnc(NC(=O)c3ccco3)s2)cc1 12.6 µM [inhibitor, single point]
Cc1ccc2nc(C)c(C(=O)N/N=C/c3ccccc3[N+](=O)[O-])cc2c1 28.2 µM [inhibitor, single point]
Cn1cccc1C(=O)C(=O)Nc1ccc(F)c(F)c1 0.199 µM [activator, full curve, poor fit]
CCN(c1ccccc1C)S(=O)(=O)c1nnc(NC(=O)c2ccco2)s1 20 µM [activator, single point]
COC(=O)c1cccc(NC(=O)Nc2ccc(Cl)c(Cl)c2)c1 35.5 µM [activator, single point]
O=C(CCl)Nc1cn(-c2ccccc2)nc1-c1ccc(F)cc1 12.6 µM [inhibitor, single point]
C/C(=N/NC(=O)c1cc(C(C)C)[nH]n1)c1cccs1 10 µM [inhibitor, single point]
CCCOc1ccc(C2=CSC3=NCCN23)cc1Cl 35.5 µM [inhibitor, single point]
CC(C)(C)C(=O)N1CCC(O)(CS(=O)(=O)Cc2ccccc2Cl)CC1 3.16 µM [activator, single point]
O=C(Nc1cnn(Cc2ccc(F)cc2)c1)c1cc(-c2cccs2)on1 35.5 µM [inhibitor, single point]
O=C(Nc1cccnc1)c1ccc(Cl)c(S(=O)(=O)N2CCCC2)c1 15.8 µM [activator, partial curve]
C=CCOc1ccc(C(=O)NC2CCCCC2)cc1 1 µM [activator, full curve]
C/C(=N\NS(=O)(=O)c1ccccc1)c1cccc(NC(=O)c2cccc(Cl)c2)c1 15.8 µM [activator, partial curve]
COc1ccc(OCCC(=O)NCC23CC4CC(CC(C4)C2)C3)cc1 35.5 µM [activator, single point]
Cc1ccc(NS(=O)(=O)c2ccc(Cl)c(NC(=S)NC(=O)C3CCCCC3)c2)cc1Cl 20 µM [inhibitor, single point]

Activity change, negative = inhibition, inactive:
COc1ccc(N(Cc2ccccc2)N=O)cc1 -5.73% [at 1.91 µM]
